Data as given in article PMC9546906.
Results are given in words; binding and its absence hold for the method and conditions named. Binding seen in cells or lysates may run through a third protein. A yes stands for co-enrichment or nearness to the bait. Other partners may have been found.

Chains of the proteins cited; added tags and fusions are not shown.
UniProt P61586: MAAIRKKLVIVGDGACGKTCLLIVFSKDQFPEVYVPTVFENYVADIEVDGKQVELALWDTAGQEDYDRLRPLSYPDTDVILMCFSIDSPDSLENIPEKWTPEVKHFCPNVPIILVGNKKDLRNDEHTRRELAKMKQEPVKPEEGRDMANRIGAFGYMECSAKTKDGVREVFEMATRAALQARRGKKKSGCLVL
UniProt Q9EQU5: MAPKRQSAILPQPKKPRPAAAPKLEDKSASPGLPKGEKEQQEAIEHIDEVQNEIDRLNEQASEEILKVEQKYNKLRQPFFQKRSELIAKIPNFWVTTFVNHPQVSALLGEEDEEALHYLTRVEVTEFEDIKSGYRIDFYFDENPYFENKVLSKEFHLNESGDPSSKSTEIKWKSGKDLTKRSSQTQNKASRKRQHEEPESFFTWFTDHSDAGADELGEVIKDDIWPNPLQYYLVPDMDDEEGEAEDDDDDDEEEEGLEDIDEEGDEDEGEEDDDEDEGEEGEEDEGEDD

Target: GFP-RhoA-wild-type (UniProt P61586)
Assay: affinity purification with mass spectrometry; RhoA cKO VSMCs transfected with GFP-RhoA-WT or GFP, stimulated with AngII for 24 h; lysates immunoprecipitated with anti-GFP antibody; CBB-stained bands specific to the GFP-RhoA-WT lane excised and analysed by LC-MS/MS

With “Set (endogenous) (from UniProt Q9EQU5 1-289)” as the substance, how does the binding read?
The binding was “binds”.
